Measured values as given in patent publication US20250134994A1, “IMMUNOGENIC MRNA DELIVERY VEHICLES” (Corner Therapeutics, Inc., priority 2022, published 2025).
At least one compound was matched to its structure with a doubt left.

Columns and labels:
canine PBMCs = assay: IL-1β secretion by canine PBMCs (ELISA); assay type: cell-based; conditions: two days in culture, R848 1 μg/mL, 22:0 LYSO PC 82.5 μM, concentration per mL and fold change per donor relative to R848 alone
Procedure: (§1) Isolation of PBMCs from Human and Canine Whole Blood. PBMCs were isolated from whole blood using density gradient centrifugation with Ficoll-Paque PLUS (Cytivia). Whole blood was diluted 1:1 with PBS, layered on top of Ficoll-Paque PLUS and centrifuged at 1000×g for 30 minutes at room temperature. PBMCs were collected, washed twice in PBS, and incubated with Ack lysis buffer (Lonza) to remove any remaining red blood cells.
(§2) Cell Culture and Stimulation. Immediately following isolation, PBMCs were plated in RPMI medium containing 10% FBS, 50 units/mL penicillin, […] streptomycin, 2 mM L-glutamine, 1 mM sodium pyruvate, and […] beta-mercaptoethanol (R10 media). […]
(§3) Endpoint Analyses. […] Half of the media volume in the wells was collected for cytokine quantification by Enzyme-Linked Immunosorbent Assay (ELISA) or Lumit™ Bioluminescent assay, while the remaining media and cells were used to quantify cell viability by assessing metabolic activity.
(§4) Quantification of Cytokine Secretion. IL-1β secretion from human PBMCs was assessed using one of the following kits: ELISA MAX Deluxe Set Human IL-1β kit (Biolegend), Invitrogen Human IL-1β kit, or the Lumit™ Human IL-1β Immunoassay (Promega). IFNγ secretion from human PBMCs was assessed using the ELISA MAX Deluxe Set Human IFNγ (Biolegend) and TNFα secretion from human PBMCs was assessed using the Human TNFα Uncoated ELISA kit (Invitrogen). […]

human PBMCs = assay: IL-1β secretion by human PBMCs (ELISA or Lumit); assay type: cell-based; conditions: two days in culture, R848 1 μg/mL
Procedure: as §1, §2, §3, §4

## CCOCc1nc2c(N)nc3ccccc3c2n1CC(C)(C)O [R848, resiquimod]
Canine PBMCs
  IL-1β secretion: elevated levels of IL-1β secretion
Human PBMCs
  IL-1β secretion: secreted IL-1β in response to R848 alone
